This is one part of the list. The rule behind the calls is not given here. Single values are uncertain here, since repeats match poorly.
Test system: Lgr5 (MarsCy1-Lgr5-EGFP, U2OS)
Assay: cell-surface Lgr5 expression (SCi1 fluorescence, background-subtracted) relative to WT DMSO (fold of DMSO control); higher = more Lgr5 at the plasma membrane
Details: U2OS MarsCy1-Lgr5-EGFP stable; treatment time: overnight; library: Kinase Gold; 20 µM
Procedure: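 U2OS cells stably expressing MarsCy1-Lgr5-EGFP in 384-well plates were incubated overnight with single-dose compounds. Cell-surface Lgr5 was stained with SCi1 and scanned at 700 nm on a LI-COR Odyssey. Intensity was background-subtracted (parental U2OS) and expressed relative to WT DMSO wells.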

cell-surface Lgr5 expression, inactive:
NC(=O)C[n+]1cccc(C(=O)Nc2ccccc2)c1 0.947
Cc1nc2ccccc2c(=O)n1NC(=S)Nc1ccccc1 0.75
O=C(Nc1ccc2nc3[nH]c(=O)[nH]c(=O)c3nc2c1)c1ccccc1 0.662
COc1ccccc1OCC(=O)NNC(=O)C1CCCO1 (centres undefined) 1.01

Reference: the supplement of paper PMC4683952
